# Reference: PubChem BioAssay AID651898 (Broad Institute, 2012)
# The list shows a part of the results. These are further read-outs of the screen, such as a control signal, another cell line or another target. No call is given for them.
# Test: cytotoxicity in HepG2 cells, dose response, cytotoxicity control, cell-based, plate reader, cherry-pick, two tests (AID 651898)
# Conditions: measured here: replicate test 2 max activity; at 6 µM unless noted
row,SMILES,max activity
1,COCC(=O)N1CC[C@@H]2[C@@H](CO)N(C)c3ccc(-c4ccc(F)cc4)cc3[C@@H]21,11.1% [at 0.195 µM]
2,O=C(Nc1ccc2c(c1)[C@H]1C[C@@H](CC(=O)N3CCc4ccccc4C3)O[C@@H](CO)[C@H]1O2)c1cccnc1,-7.45% [at 0.38 µM]
3,O=C(C[C@@H]1C[C@@H]2c3cc(NC(=O)c4cccnc4)ccc3O[C@@H]2[C@@H](CO)O1)NCc1cccc(F)c1,-14.9% [at 0.195 µM]
4,CN1c2ccc(-c3cccc(C#N)c3)cc2[C@H]2[C@H](CCN2C(=O)CC2CC2)[C@H]1CO,18.4% [at 23.5 µM]
5,O=C(N[C@H]1CC[C@@H](CCn2cc(-c3cccnc3)nn2)O[C@@H]1CO)c1ccccc1F,-13.9% [at 0.38 µM]
6,O=C(Cc1ccccc1)N1CC[C@@H]2[C@H]1c1cc(Br)ccc1N[C@@H]2CO,-7.53% [at 1.6 µM]
7,CN1c2ccc(-c3cccc(F)c3)cc2[C@H]2[C@H](CCN2C(=O)c2ccc3c(c2)OCO3)[C@H]1CO,-11% [at 0.38 µM]
8,O=C(c1ccccc1F)N1CC[C@@H]2[C@H]1c1cc(Br)ccc1N[C@@H]2CO,-7.36% [at 1.6 µM]
9,COc1ccccc1S(=O)(=O)N1CC[C@@H]2[C@H](CO)Nc3ccc(-c4cccc(C#N)c4)cc3[C@@H]21,13.8% [at 0.8 µM]
10,O=C(c1cccc(F)c1)N1CC[C@@H]2[C@H]1c1cc(-c3cccc(F)c3)ccc1N[C@@H]2CO,-13.9% [at 0.75 µM]
11,O=C(Nc1ccc2c(c1)[C@H]1C[C@@H](CC(=O)N3CCc4ccccc4C3)O[C@H](CO)[C@H]1O2)c1cccnc1,-8.01% [at 6.8 µM]
12,N#C[C@H]1[C@@H](c2ccccc2)[C@@H](CO)N1C(=O)Nc1cccc(F)c1,14.7% [at 12 µM]
13,O=C(c1ccncc1)N1CC[C@H]2[C@H](CO)Nc3ccc(Br)cc3[C@H]21,-17.3% [at 1.5 µM]
14,O=C(Nc1nccs1)[C@H]1[C@H](CO)[C@H]2Cn3c(ccc(-c4cccnc4)c3=O)[C@H]2N1CC1CCCC1,9.03% [at 26 µM]
15,C/C=C/c1ccc2c(c1)O[C@@H](CN(C)C(=O)Cc1cccnc1)[C@H](C)CN([C@H](C)CO)S2(=O)=O,-11.7% [at 1.6 µM]
16,O=C(c1cccc(F)c1)N1CC[C@@H]2[C@H](CO)Nc3ccc(-c4cccc(F)c4)cc3[C@@H]21,-15.4% [at 0.8 µM]
17,CN1c2ccc(-c3cccc(F)c3)cc2[C@H]2[C@H](CCN2C(=O)c2ccncc2)[C@@H]1CO,-3.95% [at 1.6 µM]
18,CCNC(=O)C[C@H]1CC[C@@H]2[C@@H](COc3ccc(NC(=O)Nc4cccc(F)c4)cc3C(=O)N2C)O1,-10.2% [at 26 µM]
19,CC(=O)N1CC[C@@H]2[C@@H](CO)N(C)c3ccc(-c4cccc(F)c4)cc3[C@@H]21,-7.89% [at 13.5 µM]
20,CCN1[C@H](C(=O)NCc2ccccc2)[C@@H](CO)[C@@H]2Cn3c(ccc(-c4cccnc4)c3=O)[C@@H]21,13.5% [at 3 µM]

row,SMILES,max activity
1,CN1c2ccc(-c3cccc(F)c3)cc2[C@H]2[C@H](CCN2C(=O)c2ccncc2)[C@H]1CO,12.3% [at 0.195 µM]
2,C[C@@H]1CN([C@@H](C)CO)C(=O)Cc2cc(NC(=O)Cn3cnnn3)ccc2O[C@H]1CN(C)Cc1ccc2c(c1)OCO2,-7.75% [at 1.6 µM]
3,CNC(=O)C[C@H]1CC[C@@H]2[C@H](COC[C@@H](O)CN2C(=O)Nc2cccc(OC)c2)O1,-13.9%
4,CC(=O)N1CC[C@@H]2[C@@H](CO)N(C)c3ccc(-c4ccccc4)cc3[C@@H]21,20.8% [at 26 µM]
5,CO[C@H]1CN(C)C(=O)c2ccc(NC(C)=O)cc2OC[C@@H](C)N(C(=O)C2CCCCC2)C[C@H]1C,-14.2% [at 0.195 µM]
6,O=C(C1CCOCC1)N1CC[C@@H]2[C@H]1c1cc(Br)ccc1N[C@@H]2CO,-6.84% [at 3 µM]
7,CCNC(=O)[C@H]1[C@H](CO)[C@H]2Cn3c(ccc(-c4cccc(F)c4)c3=O)[C@H]2N1C(=O)Cc1cccnc1,9.41% [at 0.8 µM]
8,C/C=C/c1ccc2c(c1)O[C@@H](CN(C)C(=O)Nc1ccc(OC)cc1)[C@@H](C)CN([C@@H](C)CO)S2(=O)=O,15.4%
9,O=C(c1cccc(F)c1)N1CC[C@@H]2[C@@H](CO)Nc3ccc(-c4cccc(F)c4)cc3[C@@H]21,-9.33%
10,O=C(C1CC1)N1CC[C@@H]2[C@H](CO)Nc3ccc(Br)cc3[C@@H]21,4.87%
11,CC(=O)N1[C@@H]2c3ccc(-c4cccnc4)c(=O)n3C[C@@H]2[C@@H](CO)[C@@H]1C(=O)NCc1ccccc1Cl,6.21% [at 1.6 µM]
12,Cc1ccccc1S(=O)(=O)NCC[C@H]1CC[C@@H](NC(=O)Nc2cccc(F)c2)[C@H](CO)O1,-9.11% [at 3 µM]
13,COC(=O)C[C@@H]1C[C@@H]2c3cc(NC(=O)c4cccnc4)ccc3O[C@@H]2[C@@H](CO)O1,-5.15%
14,CN(C)C(=O)C[C@@H]1C[C@@H]2c3cc(NC(=O)c4cccnc4)ccc3O[C@@H]2[C@@H](CO)O1,-7.52% [at 0.8 µM]
15,CNC(=O)C[C@H]1CC[C@@H]2[C@H](COC[C@@H](O)CN2C(=O)Nc2ccc(Cl)c(Cl)c2)O1,-20.5% [at 0.8 µM]
16,O=C(c1ccncc1)N1CC[C@@H]2[C@@H](CO)Nc3ccc(Br)cc3[C@@H]21,5.55% [at 0.8 µM]
17,CCC(=O)N1CC[C@@H]2[C@H]1c1cc(-c3cccc(F)c3)ccc1N(C)[C@H]2CO,8.59% [at 0.195 µM]
18,C[C@@H]1CN([C@@H](C)CO)C(=O)c2cc(C#Cc3cccnc3)cnc2O[C@H]1CN(C)S(C)(=O)=O,16.3% [at 0.8 µM]
19,O=C(C[C@@H]1C[C@@H]2c3cc(NC(=O)c4cccnc4)ccc3O[C@@H]2[C@@H](CO)O1)NCc1cccnc1,-15% [at 1.6 µM]
20,N#Cc1ccc(-c2ccc3c(c2)[C@@H]2[C@@H](CCN2C(=O)c2ccc(F)cc2)[C@@H](CO)N3)cc1,-6.17% [at 26 µM]

# A portion of the results above, as a working copy:
row,SMILES,max activity
3,CNC(=O)C[C@H]1CC[C@@H]2[C@H](COC[C@@H](O)CN2C(=O)Nc2cccc(OC)c2)O1,-13.9%
4,CC(=O)N1CC[C@@H]2[C@@H](CO)N(C)c3ccc(-c4ccccc4)cc3[C@@H]21,20.8% [at 26 µM]
5,CO[C@H]1CN(C)C(=O)c2ccc(NC(C)=O)cc2OC[C@@H](C)N(C(=O)C2CCCCC2)C[C@H]1C,-14.2% [at 0.195 µM]
6,O=C(C1CCOCC1)N1CC[C@@H]2[C@H]1c1cc(Br)ccc1N[C@@H]2CO,-6.84% [at 3 µM]
7,CCNC(=O)[C@H]1[C@H](CO)[C@H]2Cn3c(ccc(-c4cccc(F)c4)c3=O)[C@H]2N1C(=O)Cc1cccnc1,9.41% [at 0.8 µM]
8,C/C=C/c1ccc2c(c1)O[C@@H](CN(C)C(=O)Nc1ccc(OC)cc1)[C@@H](C)CN([C@@H](C)CO)S2(=O)=O,15.4%
9,O=C(c1cccc(F)c1)N1CC[C@@H]2[C@@H](CO)Nc3ccc(-c4cccc(F)c4)cc3[C@@H]21,-9.33%
10,O=C(C1CC1)N1CC[C@@H]2[C@H](CO)Nc3ccc(Br)cc3[C@@H]21,4.87%
11,CC(=O)N1[C@@H]2c3ccc(-c4cccnc4)c(=O)n3C[C@@H]2[C@@H](CO)[C@@H]1C(=O)NCc1ccccc1Cl,6.21% [at 1.6 µM]
